For this assay, the target named is PfGATase (isolated glutamine amidotransferase domain of PfGMPS) (Plasmodium falciparum) (UniProt Q8IJR9). In words: SEC; analytical gel filtration, Superdex 200 HR 10/30, 50 mM Tris-HCl pH 7.4, 100 mM KCl; 100 μl of 20 μM protein, each injected individually; both purified.

Results are given in words; binding and its absence hold for the method and conditions named.

B1: PfGATase (isolated glutamine amidotransferase domain of PfGMPS) (domain or fragment, UniProt Q8IJR9 1-236)
chain: MEGEEYDKILVLNFGSQYFHLIVKRLNNIKIFSETKDYGVELKDIKDMNIKGVILSGGPYSVTEAGSPHLKKEVFEYFLEKKIPIFGICYGMQEIAVQMNGEVKKSKTSEYGCTDVNILRNDNINNITYCRNFGDSSSAMDLYSNYKLMNETCCLFENIKSDITTVWMNHNDEVTKIPENFYLVSSSENCLICSIYNKEYNIYGVQYHPEVYESLDGELMFYNFAYNICKCKKQFD
As for B1, the binding entry is recorded as “no binding (tested: 20 μM)”.

For the origin of these results see paper PMC4673825, “Active site coupling in Plasmodium falciparum GMP synthetase is triggered by domain rotation” (Nature Communications, 2015).
